# From PubChem BioAssay AID2685 (National Center for Advancing Translational Sciences (NCATS), 2010)
# The other results are listed elsewhere or left out. These are further read-outs of the screen, such as a control signal, another cell line or another target. No call is given for them. Compounds called inactive in the main read-out are mostly missing here. The note in brackets gives the kind of curve behind each potency; many fits are weak.
# Assay: qHTS Assay for Lipid Storage Modulators in Drosophila S3 Cells;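 as to cell number change: cells counted by Cell Tracker Red CMTPX staining in the red channel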
# Details: BODIPY lipid droplet fluorescence, 18-24 h; for cell number change: measured here: cell count max response, cells fed with added oleic acid
# Summary of the method: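 Drosophila S3 cells loaded with oleic acid (400 uM, as added) and compounds at several concentrations; lipid droplets imaged by 488-nm laser-scanning cytometry, 500–530 nm intensity and object ratio to cell channel. Percent activity normalized to 20 uM Triacsin C.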
# [1] = measured here: cell number channel AC50, cells fed with added oleic acid
# [2] = measured here: lipid fluorescence (Fed channel) AC50, cells fed with added oleic acid
SMILES,cell number change [%],AC50 [1],AC50 [2]
Cc1ccc(N2CC(C(=O)N(C)CC(=O)Nc3ccc(Cl)c(C(F)(F)F)c3)CC2=O)cc1 (centres undefined),-45.4,"20.6 µM [falling, single point]","18.4 µM [falling, single point]"
CC(C)c1ccc(NC(=O)C2CCN(S(=O)(=O)c3ccc4c(c3)NC(=O)CO4)CC2)cc1,-12.5,"2.31 µM [rising, partial curve]","0.13 µM [rising, full curve, poor fit]"
O=C1Nc2ccccc2/C1=N/N=C/c1cccc(O)c1,8.06,"3.26 µM [falling, single point]",
COc1ccc(-c2noc(CNS(=O)(=O)c3ccccc3)n2)cc1,29.9,,"35.5 µM [rising, single point]"
CCOC(=O)C1CCN(C2CCN(Cc3nc(-c4ccccc4)no3)CC2)CC1,-6.12,,"3.26 µM [falling, full curve, poor fit]"
CC1(C)C(C=C(Cl)Cl)C1C(=O)OCc1cccc(Oc2ccccc2)c1 (centres undefined),36.1,,"4.61 µM [rising, partial curve, poor fit]"
CC1CCCC(NC(=O)c2n[nH]c(=O)c3ccccc23)C1C (centres undefined),8.62,"6.51 µM [rising, partial curve, poor fit]","6.51 µM [rising, partial curve]"
Cc1cc(C(=O)COc2ccccc2C(N)=O)c(C)n1C,30.3,"29.1 µM [rising, single point]",
COc1ccc(CNC(=O)c2cc(SC)ccc2Cl)cc1OC,10.5,,"0.164 µM [rising, full curve]"
Cc1ccc(C)[n+](CC(=O)c2ccc(-c3ccccc3)cc2)c1,-38.3,"23.1 µM [falling, single point]","18.4 µM [falling, single point]"
COc1ccc(OC)c(NC(=O)CCC(=O)Nc2nnc(C(F)(F)F)s2)c1,50.6,"18.4 µM [rising, partial curve]",
Cc1cccc(-c2oc3ccc(-c4ccc5c(c4)OCO5)cc3c2C(=O)OCc2ccc(O)cc2)c1,32.6,"1.64 µM [rising, partial curve, poor fit]",
Cn1cnnc1SCC(=O)NCCc1ccccc1,25.1,,
C/C(=N\NC(=O)c1nnn(-c2nonc2N)c1-c1cccs1)c1cccnc1,7.31,"4.11 µM [rising, single point]",
COc1cc(OC)cc(-c2c(-c3ccc(F)cc3)c3cc(-c4ccc5cc[nH]c5c4)ccc3n2C)c1,10,"6.51 µM [falling, single point]","0.517 µM [rising, single point]"
COC(=O)c1ccc(-c2ccc(/C=N/N3C(=O)C4C5C=CC(C6CC56)C4C3=O)o2)cc1 (centres undefined),,,"25.9 µM [falling, partial curve, poor fit]"
COc1cc(C(C(=O)NCC2CCCO2)N(C(=O)Cn2nnc3ccccc32)c2ccc(C(C)=O)cc2)ccc1O (centres undefined),,,"4.11 µM [falling, partial curve]"
COc1ccccc1OCc1nnc(SCC(N)=O)n1-c1ccccc1,11.9,,"29.1 µM [rising, single point]"

SMILES,cell number change [%],AC50 [1],AC50 [2]
COCCCN1C(=O)c2ccc(C(=O)N3CCN(c4ccccc4OC)CC3)cc2C1=O,0.382,,"18.4 µM [rising, single point]"
Cc1ccc(-n2c(C)nnc2SCC(=O)N(C)c2c(N)n(Cc3ccccc3)c(=O)[nH]c2=O)cc1,-6.56,,"29.1 µM [rising, single point]"
CS(=O)(=O)N(CCc1ccccc1)CC(=O)NCC1CCCO1 (centres undefined),-34.5,"8.2 µM [falling, partial curve, poor fit]",
O=c1nc(N/N=C/C=C/c2ccccc2)cn[nH]1,-47.7,"29.1 µM [falling, single point]","25.9 µM [falling, partial curve]"
COc1ccc(-n2c(SCC(=O)NC3CC3)nc3ccccc3c2=O)cc1OC,-11.4,,"1.46 µM [rising, full curve]"
CCCc1nnc2c(N(C)S(=O)(=O)c3ccccc3)nc3ccccc3n12,-33,"11.6 µM [falling, single point]","0.00517 µM [rising, full curve, poor fit]"
COCCN(C(=O)c1csnn1)C(C(=O)NC1CCCCC1)c1ccccc1 (centres undefined),-7.62,,"29.1 µM [rising, single point]"
CCNC(=O)Nn1c(-c2ccccc2)nc2ccccc2c1=O,-11.3,,
O=C1N=C(N2CCN(c3ccccc3)CC2)S/C1=C\c1cn[nH]c1-c1ccccc1,-28.1,,"2.31 µM [rising, partial curve, poor fit]"
CCc1ccccc1NC(=O)c1cc(-c2ccco2)on1,-5.42,,
Cc1ccc(N=CC2=C(O)CC(c3ccco3)CC2=O)cc1 (centres undefined),-51.5,"5.8 µM [falling, partial curve]","1.84 µM [falling, partial curve]"
O=C(CCN1CCc2ccccc21)c1ccc2c(c1)OCCO2,-16.1,,"1.46 µM [rising, partial curve, poor fit]"
COc1ccc(/C=C/C(=O)OCC(=O)NCCNC(=O)COC(=O)/C=C/c2ccc(OC)cc2)cc1,2.65,,"11.6 µM [falling, partial curve]"
COc1ccc(-c2c(C)nn(-c3ccccc3)c2N)cc1,65.9,"10.3 µM [rising, partial curve]",
CC(C)Cn1c(=O)c(C(=O)NCc2ccccn2)c(O)c2ccccc21,,"0.116 µM [rising, full curve, poor fit]","0.164 µM [rising, full curve]"
CCOC(=O)c1c(CN2CCN(CCO)CC2)n(C)c2cc(Br)c(OC)cc12,-26.3,,"13 µM [falling, partial curve]"
CC(NC(=O)c1ccc(F)cc1)c1ccccc1 (centres undefined),-1.53,,
CCOC(=O)Cc1cc(=O)n2[nH]c(C)c(-c3ccccc3)c2n1,19.5,,"3.66 µM [rising, full curve, poor fit]"

# At a glance, some entries already given.
SMILES,cell number change [%],AC50 [1],AC50 [2]
CCCc1nnc2c(N(C)S(=O)(=O)c3ccccc3)nc3ccccc3n12,-33,"11.6 µM [falling, single point]","0.00517 µM [rising, full curve, poor fit]"
COCCN(C(=O)c1csnn1)C(C(=O)NC1CCCCC1)c1ccccc1 (centres undefined),-7.62,,"29.1 µM [rising, single point]"
CCNC(=O)Nn1c(-c2ccccc2)nc2ccccc2c1=O,-11.3,,
